Screen size: about 2,300 compounds; about 1,400 (61%) were called active. So high a share suggests a set chosen from earlier hits. Inconclusive results, whose numbers are uncertain, are shown with a selection of clear calls. Calls come from the whole dose curve; as a rule, active = well fitted inhibition curve with a large enough effect; inconclusive = small, poorly fitted or top-dose-only effect, or effect the other way; inactive = no such curve, though single readings can be large or run the other way. A potency beside an inconclusive call is a rough fit, not a confirmed value.
Assay: Confirmation screen for delayed death inhibitors of the malarial parasite plastid, 96 hour incubation; note: nearly all actives have a fitted effect of over 60% in size
Settings: P. falciparum luciferase growth in erythrocytes; series mostly up to 28.7 µM; activity change, negative = inhibition: at the top concentration
Outline: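 Erythrocytes infected with luciferase-expressing P. falciparum (2% hematocrit, 0.1% parasitemia final) in RPMI 1640 with 0.5% Albumax, exposed to compounds 96 h at 37 C, 5% CO2. Growth inhibition read as decreased luciferase luminescence.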
With `CCOC(=O)c1c(-c2cccc(C)c2)csc1NC(=O)c1c(-c2ccccc2)noc1C` the Potency was active: 8.91 µM.
With `CCc1ccccc1Nc1nc(N)nc(COC(=O)CCC(=O)c2ccc(F)cc2)n1` the Potency was active: 2.51 µM.
For `COc1ccc(CCn2c(-c3ccco3)nc3ccccc3c2=O)cc1OC`, the Potency was inconclusive: 0.316 µM [inhibitor, full curve, poor fit].
In the case of `CC(=O)Nc1sc(C)c(C)c1C(=O)OCC(=O)N(CC(C)C)C1CCS(=O)(=O)C1` (stereo not drawn), the Potency is reported as active: 12.6 µM.
For `CCc1ccc(Nc2ncc3c(n2)CC(c2ccco2)CC3=O)cc1` (stereo not drawn), the Potency was inconclusive: 3.98 µM [activator, partial curve, poor fit].
With `COc1ccc(CC(=O)NNC(=O)CN(C)S(=O)(=O)c2ccc(Cl)cc2)cc1OC` the Potency was inconclusive: 7.94 µM [inhibitor, partial curve, poor fit].
For `Cc1cccn2cc(COc3ccc(-c4ccccc4)cc3)nc12`, the Potency was inconclusive: 2.24 µM [activator, full curve, poor fit].
With `Cc1c(C(=O)N2CCC(n3nccc3NC(=O)C3CC3)CC2)[nH]c2ccc(Cl)cc12` the Potency was active: 14.1 µM.
In the case of `COc1cccc(S(=O)(=O)NCc2ccc(C(=O)NCc3ccccn3)cc2)c1`, the “activity change, negative = inhibition” value is reported as inactive: -24.9%.
In the case of `CCOC(=O)c1c(C)c(-c2ccccc2)n(CC(=O)NCCCN(CC)CC)c1C`, the Potency is reported as active: 11.2 µM.
For `COc1cccc(-n2c(SCc3ccccn3)nc3c(c2=O)SCC3)c1`, the Potency was inconclusive: 7.94 µM [inhibitor, partial curve].
For `Cc1cc(C)cc(-n2ncc3c2CCCC3NC(=O)c2cc(C)[nH]n2)c1` (stereo not drawn), the Potency was inconclusive: 10 µM [inhibitor, single point].
For `COc1cc(C(=O)Nc2ccc(S(=O)(=O)Nc3cc(C)on3)cc2)cc(OC)c1OC`, the “activity change, negative = inhibition” value was inactive: -8.04%.
With `Cc1nn(-c2ccccc2)c(C)c1NC(=O)COC(=O)[C@@H](NC(=O)c1ccccc1)C(C)C` the “activity change, negative = inhibition” value was inactive: -20.8%.
For `COc1cc(C2Oc3ccccc3C=C2[N+](=O)[O-])cc(OC)c1OC` (stereo not drawn), the Potency was active: 12.6 µM.
For `O=C1C=C(c2ccccc2)OC2(CCCC2)O1`, the Potency was inconclusive: 5.01 µM [inhibitor, partial curve, poor fit].
With `CCC(C(=O)Nc1sc(C(N)=O)c(C)c1C(=O)OC)c1ccccc1` (stereo not drawn) the Potency was inconclusive: 0.562 µM [inhibitor, full curve, poor fit].
For `O=C(Nc1ccsc1C(=O)O)c1cccc(C(F)(F)F)c1`, the “activity change, negative = inhibition” value was inactive: 0.077%.
With `O=C(COc1ccccc1)Nc1nc2c(s1)CCCC2` the Potency was inconclusive: 14.1 µM [activator, partial curve].
With `COc1ccc(OC)c(/C=C/C(=O)c2ccc3c(c2)OCO3)c1` the Potency was inconclusive: 5.62 µM [inhibitor, partial curve, poor fit].
For `COC(=O)c1cn(C)c2ccc(S(=O)(=O)N3CCCC3)cc2c1=O`, the “activity change, negative = inhibition” value was inactive: -13.2%.
For `NC(=O)CC(NC(=O)c1ccccc1)c1ccc(N2CCN(c3ccccc3)CC2)c([N+](=O)[O-])c1` (stereo not drawn), the Potency was active: 12.6 µM.
With `CCOc1ccccc1NC(=O)c1ccccc1-c1ccccc1` the Potency was inconclusive: 17.8 µM [inhibitor, single point].
With `CCOc1nc(NCCN2CCOCC2)nc(Nc2ccc(C)cc2)n1` the Potency was inconclusive: 15.8 µM [inhibitor, single point].
With `COC(=O)c1ccc(CSc2ccccc2C)o1` the Potency was inconclusive: 15.8 µM [activator, single point].
In the case of `CN(C)S(=O)(=O)N1CCN(c2ccnc3cc(Cl)ccc23)CC1`, the Potency is reported as inconclusive: 10 µM [inhibitor, partial curve, poor fit].
For `Cc1ccc(S(=O)(=O)N2CCCCC2C)cc1[N+](=O)[O-]` (stereo not drawn), the Potency was inconclusive: 15.8 µM [inhibitor, single point].
For `Cc1ccc(C(CC(=O)c2ccco2)SCCO)cc1` (stereo not drawn), the Potency was inconclusive: 1.12 µM [inhibitor, full curve, poor fit].
For `CCCCNC(=O)c1onc(CSc2cc(C)ccc2C)c1C(=O)O`, the “activity change, negative = inhibition” value was inactive: -0.286%.
In the case of `O=C(CC(c1ccccc1)c1cc(Br)ccc1O)NCCN1CCOCC1` (stereo not drawn), the Potency is reported as inconclusive: 20 µM [inhibitor, partial curve, poor fit].
In the case of `Cc1nc([N+](=O)[O-])c(Br)n1CC(=O)c1ccc(F)cc1`, the Potency is reported as inconclusive: 0.891 µM [inhibitor, full curve, poor fit].
In the case of `O=C(CCCN1C(=O)/C(=C\c2ccco2)SC1=S)Nc1ccc2ccccc2c1`, the Potency is reported as inconclusive: 17.8 µM [inhibitor, single point].
In the case of `COc1cc2c(cc1OC)-c1cc(N3CCc4ccccc43)nc(=O)n1CC2`, the Potency is reported as active: 5.01 µM.
With `CC(C)N1CCC2(CC1)N=C(c1ccc3c(c1)OCO3)CC(c1cc(Cl)ccc1O)N2` (stereo not drawn) the Potency was inconclusive: 0.398 µM [inhibitor, full curve, poor fit].
With `Cc1c(NC(=O)C(C)Sc2nccn2C)c(=O)n(-c2ccccc2)n1C` (stereo not drawn) the “activity change, negative = inhibition” value was inactive: -5.32%.
In the case of `O=C(OC[C@@H]1O[C@@](O)(COC(=O)c2cccnc2)[C@H](OC(=O)c2cccnc2)[C@H]1OC(=O)c1cccnc1)c1cccnc1`, the Potency is reported as active: 6.31 µM.
With `O=C(CCNC(=O)c1ccc(Br)cc1)NC1CCCc2ccccc21` (stereo not drawn) the Potency was inconclusive: 5.01 µM [inhibitor, full curve].
For `Cc1c(C(=O)Nc2cccc([N+](=O)[O-])c2)csc1-c1ccccc1`, the Potency was inconclusive: 5.01 µM [inhibitor, full curve, poor fit].
In the case of `CCOc1ccc(CCn2c(-c3ccco3)nc3ccccc3c2=O)cc1OCC`, the Potency is reported as active: 10 µM.
For `Cc1ccc(C(=O)/C=C/C(=O)O)cc1`, the Potency was inconclusive: 0.199 µM [inhibitor, partial curve, poor fit].
With `COC(=O)C1=C(C)Nc2ncnn2C1c1ccccn1` (stereo not drawn) the “activity change, negative = inhibition” value was inactive: -14%.
In the case of `Cc1ccc(NC(=O)c2cccc(N3C(=O)C4C5C=CC(C5)C4C3=O)c2)cc1C` (stereo not drawn), the Potency is reported as inconclusive: 7.94 µM [inhibitor, partial curve, poor fit].
With `Nc1c(N(Cc2ccco2)C(=O)c2ccc(Br)cc2)c(=O)[nH]c(=O)n1Cc1ccccc1` the “activity change, negative = inhibition” value was inactive: -7.43%.
With `CCc1ccc2c(CN(C)Cc3ccccc3OC)cc(=O)oc2c1` the Potency was inconclusive: 15.8 µM [inhibitor, single point].
In the case of `Oc1ccc(-c2csc(NCc3ccco3)n2)cc1`, the Potency is reported as inconclusive: 5.01 µM [activator, partial curve].
With `COc1cc([N+](=O)[O-])c(OC)cc1SCc1n[nH]c(=S)n1-c1ccc(F)cc1` the Potency was active: 15.8 µM.
In the case of `CCOC(=O)C1=C(O)/C(=C\c2cc(C)n(-c3ccccc3F)c2C)N=C1C`, the Potency is reported as inconclusive: 0.0316 µM [inhibitor, full curve, poor fit].
In the case of `CN(Cc1ccccc1)C(=O)c1ccc(NC(=O)Cc2cccc(NC(=O)C3CCCN(C(=O)CCc4ccccc4)C3)c2)cc1` (stereo not drawn), the Potency is reported as inconclusive: 0.316 µM [inhibitor, full curve, poor fit].
For `CCOC(=O)C1CCCN(C(=O)c2cc3cc4ccc(OC)cc4nc3o2)C1` (stereo not drawn), the Potency was active: 7.94 µM.
With `COc1ccccc1OCC(=O)Nc1nc2c(s1)CCCC2` the “activity change, negative = inhibition” value was inactive: 52.6%.
With `COc1cc(/C=C2/CCC/C(=C\c3cc(O)c(OC)c(Cl)c3)C2=O)cc(Cl)c1O` the Potency was active: 7.08 µM.
In the case of `CC(=O)NC(C)c1nc2ccccc2n1CC(=O)N1C(C)CCCC1C` (stereo not drawn), the Potency is reported as inconclusive: 7.94 µM [inhibitor, partial curve, poor fit].
In the case of `CCC1CN(C(=O)N2CCC(C(=O)Nc3ccccc3F)CC2)c2ccccc2O1` (stereo not drawn), the Potency is reported as inconclusive: 20 µM [inhibitor, partial curve, poor fit].
In the case of `Cc1cc(C(=O)N(C)CC2CCCN(CCc3ccc(F)cc3)C2)c(C)o1` (stereo not drawn), the Potency is reported as active: 14.1 µM.
With `CCS(=O)(=O)c1ncc(Cl)c(C(=O)Nc2ccc(C)cc2)n1` the Potency was inconclusive: 15.8 µM [inhibitor, partial curve, poor fit].
With `O=C(CC(SCCO)c1ccc2c(c1)OCO2)c1ccco1` (stereo not drawn) the Potency was inconclusive: 7.08 µM [inhibitor, single point].
For `COc1ccc2c(c1)c(CC(=O)OCC(=O)N(C)C)c(C)n2C(=O)c1ccc(Cl)cc1`, the Potency was inconclusive: 14.1 µM [inhibitor, single point].
In the case of `Cn1nccc1C(=O)N1CCCC(N2CCN(c3cccc(C(F)(F)F)c3)CC2)C1` (stereo not drawn), the Potency is reported as inconclusive: 11.2 µM [inhibitor, partial curve].
In the case of `CCOc1ccccc1C(=O)NCC(=O)NCCc1ccc(S(N)(=O)=O)cc1`, the “activity change, negative = inhibition” value is reported as inactive: 6.57%.
For `O=C(O)CCCN1C(=O)/C(=C\C(Cl)=C\c2ccccc2)SC1=S`, the Potency was active: 5.01 µM.
For `O=C(NCCCN1CCCC1=O)C1CCC(CNS(=O)(=O)c2ccc(Cl)cc2)CC1` (stereo not drawn), the Potency was inconclusive: 15.8 µM [inhibitor, single point].
For `Cc1ccc(N/N=C/c2ccncc2)cc1`, the Potency was inconclusive: 17.8 µM [inhibitor, single point].
With `O=C(OCC(=O)N1CCN(c2ccccc2)CC1)c1cc(Cl)ccc1[N+](=O)[O-]` the “activity change, negative = inhibition” value was inactive: -16.5%.
In the case of `CS(=O)(=O)c1ccc(C(=O)OCc2nnc(-c3ccccc3)o2)cc1[N+](=O)[O-]`, the Potency is reported as inconclusive: 10 µM [inhibitor, partial curve].
In the case of `Brc1ccccc1OCCCOc1cccc2cccnc12`, the Potency is reported as inconclusive: 0.891 µM [activator, partial curve, poor fit].
In the case of `CCOC(=O)Cn1c(-c2nonc2NC(=O)c2ccccc2F)nc2ccccc21`, the Potency is reported as inconclusive: 2.24 µM [inhibitor, full curve, poor fit].
For `CCOCCCNC(=O)/C(C#N)=C/c1ccc(-c2ccc(S(=O)(=O)N3CCOCC3)cc2)o1`, the Potency was active: 11.2 µM.
In the case of `COc1cc(C(=O)NCc2nnc(SCC(=O)NC3CCCC3)o2)cc(OC)c1OC`, the Potency is reported as inconclusive: 5.62 µM [inhibitor, partial curve, poor fit].

Reference: PubChem BioAssay AID504848 (National Center for Advancing Translational Sciences (NCATS), 2011)
% is set by controls: 0 for no effect and ±100 for the full control effect; potency is the fitted concentration of half-maximal effect.
